From US20090053138 come the findings set out here.

Sequences of proteins named here, by UniProt entry; tags and fusion partners are left off. Residues count along the entry.
UniProt P01127, 82-190: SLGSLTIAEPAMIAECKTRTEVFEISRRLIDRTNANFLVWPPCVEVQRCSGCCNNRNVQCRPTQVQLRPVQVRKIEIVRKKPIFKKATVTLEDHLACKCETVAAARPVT

For this data set, the target named is PDGF-BB (Homo sapiens) (UniProt P01127). The data set is described as follows: activity in cells. To be noted: 3'-inverted dT, purified recombinant protein, protein details: PeproTech; for IC50: 3T3 proliferation; for functional effect of the aptamer: PS in 5' CpG part and at 3' end, blocks PDGF-BB (R&D Systems) driven ERK phosphorylation in 3T3, variant of ARC124, dose not given here.

[1] abbreviates: all deoxy, PEG-6 spacers, single-stranded DNA, variant of ARC126.

For at least one entry, the source does not settle the construct or the ends of the probe.

The term IC50 denotes the concentration that inhibits the measured activity by half. As to CAGGCUACGCGTAGAGCAUCATGATCCUG [ARC407], the IC50 (2'-OMe at s1 U6 C8 G9, s2 G5 G7 U10 A12, s3 C5 C6 U7 G8, rest deoxy, PEG-6 spacers, variant of ARC126) amounted to 0.0164 µM.

Regarding CAGGCTACGCGTAGAGCATCATGATCCUG [ARC337], the IC50 (2'-OMe at s3 C5 C6 U7 G8, rest deoxy, PEG-6 spacers, variant of ARC126) was 1 µM.

In the case of CAGGCTACGCGTAGAGCATCATGATCCUG [ARC341], the IC50 (2'-OMe at s1 G9, s2 G5 G7 A12, s3 C5 C6 U7 G8, rest deoxy, PEG-6 spacers, variant of ARC126) worked out at 1 µM.

With CAGGCTACGCGTAGAGCATCATGATCCTG [ARC299], the IC50 under setting [1] was found to be 1 µM.

In the case of “ACAGGCTACGCGTAGAGCATCATGATCCTGT [ARC335]”, the IC50 under setting [1] was found to be 0.09 µM.

On to CAGGCUACGCGTAGAGCAUCATGATCCUG [ARC408], for which the IC50 (2'-OMe at s1 U6 C8 G9, s2 G5 G7 U10 C11 A12, s3 C6 U7 G8, rest deoxy, PEG-6 spacers, variant of ARC126) was 0.0284 µM.

With “CCCAGGCTACGUUUUCGTAGAGCAUCATGATCCTGGG [ARC1013]”, for the setting “5'-NH2, 2'-OMe as ARC513, first PEG spacer replaced by mUmUmUmU, second PEG spacer kept, variant of ARC513”, the concentration for half-maximal inhibition (IC50) turned out to be 0.0154 µM.

In the case of CAGGCTACGCGTAGAGCAUCATGATCCUG [ARC346], the IC50 (2'-OMe at s1 G9, s2 G5 G7 U10 A12, s3 C5 C6 U7 G8, rest deoxy, PEG-6 spacers, variant of ARC126) was 0.015 µM.

Turning to CAGGCTACGCGTAGAGCAUCATGATCCUG [ARC404], under “2'-OMe at s1 C8 G9, s2 G5 G7 U10 C11 A12, s3 C5 C6 U7 G8, rest deoxy, PEG-6 spacers, variant of ARC126”, the IC50 came to 0.00389 µM.

Consider CAGGCUACGCGTAGAGCATCATGATCCUG [ARC344], for which the IC50 (2'-OMe at s1 U6 G9, s2 G5 G7 A12, s3 C5 C6 U7 G8, rest deoxy, PEG-6 spacers, variant of ARC126) turned out to be 0.2 µM.

As for “CCCAGGCTACGUUUCGTAGAGCAUCATGATCCTGGG [ARC1012]”, under “5'-NH2, 2'-OMe as ARC513, first PEG spacer replaced by mUmUmU, second PEG spacer kept, variant of ARC513”, the half-maximal inhibitory concentration (IC50) was 0.00279 µM.

With “CCCAGGCTACGCGTAGAGCAUCAUUUUTGATCCTGGG [ARC1015]”, for the setting “5'-NH2, 2'-OMe as ARC513, second PEG spacer replaced by mUmUmUmU, first PEG spacer kept, variant of ARC513”, the IC50 was 0.0101 µM.

Take CAGGCTACGCGTAGAGCATCATGATCCTG [ARC338]: the IC50 (2'-OMe at s1 C1 A2 G3 G4, rest deoxy, PEG-6 spacers, variant of ARC126) turned out to be 1 µM.

Turning to “CCCAGGCTACGUUUCGTAGAGCAUCAUUUTGATCCTGGG [ARC1016]”, for the setting “5'-NH2, 2'-OMe as ARC513, both PEG spacers replaced by mUmUmU, variant of ARC513”, the half-inhibitory concentration (IC50) came out at 0.0085 µM.

Take “AACGTTCGAGCAGGCTACGGCACGTAGAGCATCACCATGATCCTGC [CpGARC124short]”: the “functional effect of the aptamer” value (single-stranded DNA) is on record as “active”.

For the sequence “CACAGGCTACGCGTAGAGCATCATGATCCTGTG [ARC363]”, the IC50 (2'-OMe at s1 G11, s2 G5 G7 A12, rest deoxy, PEG-6 spacers, variant of ARC126) was determined as 0.00392 µM.

As to “CACAGGCTACGCGTAGAGCATCATGATCCUGUG [ARC340]”, the IC50 (2'-OMe at s3 C5 C6 U7 G8 U9 G10, rest deoxy, PEG-6 spacers, variant of ARC126) was 0.867 µM.

For the sequence “CACAGGCTACGCGTAGAGCATCATGATCCTGTG [ARC336]”, the IC50 under setting [1] is 0.197 µM.

As to “CCCAGGCTACGCGTAGAGCAUCATGATCCTGGG [ARC513]”, the IC50 (2'-OMe at s1 G11, s2 G5 G7 U10 C11 A12, s3 C5 G8 G9 G10, rest deoxy, PEG-6 spacers, 3.7 in Table 3A/3B, 3.2 in Table 3C, variant of ARC126) came to 0.00207 µM.

With CAGGCUACGCGTAGAGCAUCATGATCCUG [ARC365], the concentration for half-maximal inhibition (IC50) (as ARC277 plus 5'-NH2, PEG-6 spacers, variant of ARC277) is 0.00679 µM.

As for CAGGCTACGCGTAGAGCATCATGATCCUG [ARC342], the IC50 (2'-OMe at s1 C8 G9, s2 G5 G7 A12, s3 C5 C6 U7 G8, rest deoxy, PEG-6 spacers, variant of ARC126) was 1 µM.

Regarding CAGGCUACGCGTAGAGCAUCATGATCCUG [ARC277], the IC50 (2'-OMe at s1 U6 C8 G9, s2 G5 G7 U10 C11 A12, s3 C5 C6 U7 G8, rest deoxy, PEG-6 spacers, variant of ARC126) was found to be 0.00867 µM.

With “CCCAGGCTACGCGTAGAGCAUCAUUUTGATCCTGGG [ARC1014]”, the IC50 (5'-NH2, 2'-OMe as ARC513, second PEG spacer replaced by mUmUmU, first PEG spacer kept, variant of ARC513) turned out to be 0.0106 µM.

CAGGCTACGCGTAGAGCATCATGATCCUG [ARC362]: the IC50 (2'-OMe at s1 G9, s2 G5 G7 A12, s3 C6 U7 G8, rest deoxy, PEG-6 spacers, variant of ARC126) was determined as 0.315 µM.

With “CCCAGGCTACGCGTAGAGCAUCATGATCCTGGG [ARC515]”, the IC50 (2'-OMe at s1 G11, s2 G5 G7 U10 C11 A12, rest deoxy, PEG-6 spacers, variant of ARC126) came to 0.00466 µM.

With “CAGGCTACGCGTAGAGCATCATGATCCTG [ARC276 (listed as 275 in Table 2)]”, the IC50 (2'-OMe at s1 G9, s2 G5 G7 A12, s3 G8, rest deoxy, PEG-6 spacers, variant of ARC126) is 0.018 µM.

For the sequence “CACAGGCTACGCGTAGAGCATCATGATCCUGUG [ARC364]”, the IC50 (2'-OMe at s3 C6 U7 G8 U9 G10, rest deoxy, PEG-6 spacers, variant of ARC126) amounted to 1.72 µM.

As for CAGGCTACGCGTAGAGCATCATGATCCUG [ARC345], for the setting “2'-OMe at s1 G9, s2 G5 G7 C11 A12, s3 C5 C6 U7 G8, rest deoxy, PEG-6 spacers, variant of ARC126”, the IC50 was found to be 0.013 µM.

Take “CCCAGGCTACGCGTAGAGCAUCATGATCCTGGG [ARC514]”: the half-maximal inhibitory concentration (IC50) (2'-OMe at s1 G11, s2 G5 G7 U10 C11 A12, s3 G8 G9 G10, rest deoxy, PEG-6 spacers, variant of ARC126) was 0.00316 µM.

As to CAGGCUACGCGTAGAGCAUCATGATCCTG [ARC410], the IC50 (2'-OMe at s1 U6 C8 G9, s2 G5 G7 U10 C11 A12, s3 C5 C6 G8, rest deoxy, PEG-6 spacers, variant of ARC126) was determined as 0.00679 µM.

In the case of “CCCAGGCTACGUUUUCGTAGAGCAUCAUUUUTGATCCTGGG [ARC1017]”, the IC50 (5'-NH2, 2'-OMe as ARC513, both PEG spacers replaced by mUmUmUmU, variant of ARC513) was 0.0143 µM.

With CAGGCUACGCGTAGAGCAUCATGATCCUG [ARC409], the IC50 (2'-OMe at s1 U6 C8 G9, s2 G5 G7 U10 C11 A12, s3 C5 U7 G8, rest deoxy, PEG-6 spacers, variant of ARC126) came out at 0.00731 µM.

Consider CAGGCUACGCGUAGAGCAUCAUGAUCCUG [ARC300], for which, where the note is “all 2'-OMe, PEG-6 spacers, no affinity listed, synthetic backbone, variant of ARC126”, the IC50 amounted to 0.9 µM.

As for “CCCAGGCTACGCGTAGAGCAUCATGATCCTGGG [ARC516]”, the IC50 (2'-OMe at s1 G11, s2 G5 G7 U10 C11 A12, s3 C5, rest deoxy, PEG-6 spacers, variant of ARC126) is 0.00305 µM.

In the case of CAGGCUACGCGTAGAGCAUCATGATCCUG [ARC405], the IC50 (2'-OMe at s1 U6 G9, s2 G5 G7 U10 C11 A12, s3 C5 C6 U7 G8, rest deoxy, PEG-6 spacers, variant of ARC126) was 0.00865 µM.

For the sequence CAGGCUACGCGTAGAGCAUCATGATCCUG [ARC127], where the note is “as ARC126 plus 5'-40 kDa PEG, HEG spacers, Elk luciferase IC50 about 2 nM, variant of ARC126”, the 50% inhibitory concentration (IC50) was determined as 0.00345 µM.

On to CAGGCUACGCGTAGAGCATCATGATCCUG [ARC406], for which the IC50 (2'-OMe at s1 U6 C8 G9, s2 G5 G7 C11 A12, s3 C5 C6 U7 G8, rest deoxy, PEG-6 spacers, variant of ARC126) was determined as 0.0171 µM.

On to “GTGAACGTTCGAGCAGGCTACGGCACGTAGAGCATCACCATGATCCTGC [LongCpGARC124]”, for which the “functional effect of the aptamer” value (single-stranded DNA) was “active”.

With “CACAGGCUACGCGTAGAGCAUCATGATCCUGUG [ARC366]”, the IC50 (2'-OMe at s1 U8 C10 G11, s2 G5 G7 U10 C11 A12, s3 C6 U7 G8 U9 G10, rest deoxy, PEG-6 spacers, variant of ARC126) was 0.00554 µM.

As to “ACAGGCTACGCGTAGAGCATCATGATCCUGU [ARC339]”, the IC50 (2'-OMe at s3 C5 C6 U7 G8 U9, rest deoxy, PEG-6 spacers, variant of ARC126) worked out at 0.767 µM.
